{"source": "PubChem BioAssay AID2685", "about": "(National Center for Advancing Translational Sciences (NCATS), 2010)", "note": "Out of some 320,000 compounds screened, about 2,100 (0.66%) were called active. Inconclusive results, whose numbers are uncertain, are shown with a selection of clear calls. Calls follow the shape of the dose curve; as a rule, active = well fitted inhibition curve with a large enough effect in the signal ratio, with a control signal flat (not every such curve was filed as active); inconclusive = small, poorly fitted or top-dose-only effect, or effect the other way, or a change in a side signal; inactive = flat fitted curve, though single readings scatter; the % refers to the signal ratio. A potency beside an inconclusive call is a rough fit, not a confirmed value. % is scaled to controls: 0 for no effect and ±100 for the full control effect; potency is read from the fitted curve at half-maximal effect."}
{"experiment": "qHTS Assay for Lipid Storage Modulators in Drosophila S3 Cells", "conditions": "BODIPY lipid droplet fluorescence, 18-24 h, cells fed with added oleic acid; lipid storage change, negative = inhibition: at 46.1 µM (top of the series) unless noted", "how_it_was_run": "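Drosophila S3 cells got compounds at several concentrations plus oleic acid (400 uM solution). Laser-scanning cytometry with 488 nm excitation read lipid droplets at 500-530 nm and cells at 575-640 nm. Percent activity was relative to 20 uM Triacsin C.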"}
{"smiles": "CN(CC1COc2ccccc2O1)C(=O)CSc1ncnc2sccc12", "note": "(stereo unspecified)", "lipid storage change, negative = inhibition": "inconclusive: -2.42%"}
{"smiles": "O=C(CCn1nnc2ccccc2c1=O)N[C@H](C(=O)O)c1ccccc1", "lipid storage change, negative = inhibition": "inconclusive: -47.6%"}
{"smiles": "COc1ccc(/C=C2\\SC(=O)N(CCNC(=O)C3CC4C=CC3C4)C2=O)cc1", "note": "(stereo unspecified)", "lipid storage change, negative = inhibition": "inactive: 22.3%"}
{"smiles": "Cc1c(C#N)c2ccccc2n1CC(=O)N1CCCC1", "lipid storage change, negative = inhibition": "inconclusive: 7.1%"}
{"smiles": "CCOC(=O)c1ccc(NC(=O)Oc2cc(C)c(Cl)cc2C(C)C)cc1", "lipid storage change, negative = inhibition": "inconclusive: -32.2%"}
{"smiles": "COC(=O)c1ccc(CO/N=C/c2cccc([N+](=O)[O-])c2)cc1", "Potency": "inconclusive: 29.1 µM [falling, single point]"}
{"smiles": "COc1ccc(C(=O)NCCCN(C)CCCNC(=O)c2ccc(OC)cc2)cc1", "Potency": "inconclusive: 0.146 µM [activator, full curve]"}
{"smiles": "CCc1ccc(NC(=O)CSc2nc3ccccc3c(=O)n2CCCN2CCC(C)CC2)cc1", "lipid storage change, negative = inhibition": "inconclusive: -11.2%"}
{"smiles": "CC(=O)Oc1ccc2c3c(c(=O)oc2c1)CCCC3", "lipid storage change, negative = inhibition": "inconclusive: 47.3%"}
{"smiles": "COc1ccccc1/C=C1/C(=O)N(c2ccccc2)N=C1C", "lipid storage change, negative = inhibition": "inconclusive: -94.4%"}
{"smiles": "O=C1NC[C@H](CC2CCCCC2)N(CCc2cccc(F)c2)C1=O", "lipid storage change, negative = inhibition": "inconclusive: 0.11%"}
{"smiles": "C=CCn1c(SCC(=O)/C(C#N)=C(\\C)N)nnc1C1CCCCC1", "lipid storage change, negative = inhibition": "inconclusive: 45.9%"}
{"smiles": "Cc1cc(C)n(-c2nnc(N3CCN(c4ccc(F)cc4)CC3)nn2)n1", "lipid storage change, negative = inhibition": "inconclusive: 20.3%"}
{"smiles": "Cc1cc(C)c2c(CN3CCN(C/C=C/c4ccccc4)CC3)cc(=O)oc2c1", "lipid storage change, negative = inhibition": "inconclusive: -15.7%"}
{"smiles": "O=C(CCNS(=O)(=O)c1cccc2nsnc12)NCCc1ccccc1", "Potency": "inconclusive: 10.3 µM [activator, partial curve]"}
{"smiles": "CC(=O)NS(=O)(=O)c1ccc(NC(=O)c2ccc(S(=O)(=O)N3CCCC3)cc2)cc1", "Potency": "inconclusive: 18.4 µM [falling, single point]"}
{"smiles": "Cc1ccc2nc(C)c(Cl)c(=O)n2c1", "lipid storage change, negative = inhibition": "inconclusive: 0.204%"}
{"smiles": "CC(=O)Nc1ccc(-n2nnnc2SCC(=O)NC2CCCC2)cc1", "Potency": "inconclusive: 29.1 µM [falling, single point]"}
{"smiles": "CCC(C)(C)NC(=O)Nc1cc(Cl)ccc1OC", "lipid storage change, negative = inhibition": "inconclusive: 9.92%"}
{"smiles": "Cc1ccc(C)c(N2CCN(C(=O)c3cc(S(=O)(=O)N4CCCC4)cn3C)CC2)c1", "Potency": "inconclusive: 8.2 µM [falling, partial curve]"}
{"smiles": "O=C(CSc1nnc(C2CCCCC2)o1)Nc1ccccc1Cl", "lipid storage change, negative = inhibition": "inconclusive: 165%"}
{"smiles": "Cc1nc2c(C#N)cnn2c2c1CCN2CC1CCCO1", "note": "(stereo unspecified)", "Potency": "inconclusive: 20.6 µM [activator, single point]"}
{"smiles": "CCCN1CCN(c2ncnc3scc(C4COc5ccccc5O4)c23)CC1", "note": "(stereo unspecified)", "lipid storage change, negative = inhibition": "inconclusive: 4.17%"}
{"smiles": "Cc1cc(C)cc(N2CN=c3s/c(=C\\c4ccco4)c(=O)n3C2)c1", "lipid storage change, negative = inhibition": "inconclusive: 31.1%"}
{"smiles": "COCCn1nc2cc(C(=O)NCc3cc(C(F)(F)F)cc(C(F)(F)F)c3)ccc2c1OC", "lipid storage change, negative = inhibition": "inconclusive: -35.1%"}
{"smiles": "CCCN(CCC)c1nc(N)nc(-c2cc(Cl)ccc2OC)n1", "lipid storage change, negative = inhibition": "inconclusive: 11.9%"}
{"smiles": "COc1ccc(S(=O)(=O)NC(C)C(=O)NCc2ccncc2)cc1OC", "note": "(stereo unspecified)", "Potency": "inconclusive: 16.4 µM [activator, single point]"}
{"smiles": "Brc1cccc(C2Nc3cccc4cccc(c34)N2)c1", "Potency": "inconclusive: 6.51 µM [activator, partial curve, poor fit]"}
{"smiles": "COc1ccc(C(=O)n2nc(C)c(Br)c2C)cc1OC", "Potency": "inconclusive: 2.06 µM [falling, partial curve]"}
{"smiles": "COc1ccc(NC(=O)c2ccccc2OCc2ccc(F)cc2)c(OC)c1", "Potency": "inconclusive: 0.116 µM [activator, partial curve, poor fit]"}
{"smiles": "CCN1CCN(CC(=O)N/N=C/c2cc(Br)cs2)CC1", "lipid storage change, negative = inhibition": "inconclusive: 7.78%"}
{"smiles": "CC1(C)C(=O)C2(C(=O)NCc3ccccc3)CCC1C2", "note": "(stereo unspecified)", "Potency": "inconclusive: 0.0326 µM [falling, full curve, poor fit]"}
{"smiles": "Cc1ccc(NC(=S)NCc2ccccc2Cl)c(C)c1", "lipid storage change, negative = inhibition": "inconclusive: -4.05%"}
{"smiles": "CCN1C(=O)C(CC(=O)Nc2ccc(F)cc2)N(CCCN2CCN(c3ccc(F)cc3)CC2)C1=S", "note": "(stereo unspecified)", "Potency": "inconclusive: 29.1 µM [cytotoxic, single point]"}
{"smiles": "Cn1c(CNC(=O)CNC(=O)c2ccccc2)cc(=O)n(C)c1=O", "Potency": "inconclusive: 0.517 µM [activator, full curve]"}
{"smiles": "CC[n+]1cc(-c2ccccc2)nc(N2CCOCC2)n1", "lipid storage change, negative = inhibition": "inconclusive: 16.4%"}
{"smiles": "CCN(CC(=O)NCc1ccc(F)cc1)S(=O)(=O)c1ccc(C)cc1", "lipid storage change, negative = inhibition": "inconclusive: -78.5%"}
{"smiles": "COc1ccc(NC(=O)N2C3CCCC2CC(NC(=O)C2CC2)C3)cc1", "note": "(stereo unspecified)", "Potency": "inconclusive: 1.16 µM [activator, single point]"}
{"smiles": "COc1ccc(-c2csc(N(CCCN(C)C)C(=O)c3ccccc3F)n2)cc1", "lipid storage change, negative = inhibition": "inconclusive: -24.6%"}
{"smiles": "COc1ccc(Cn2c(O)c(C=Nc3ccc(O)cc3)c3ccccc3c2=O)cc1", "lipid storage change, negative = inhibition": "inconclusive: -30.2%"}
{"smiles": "OCCCn1c(-c2ccccc2)nc(=S)c2c1CCCC2", "lipid storage change, negative = inhibition": "inconclusive: 21.5%"}
{"smiles": "CCOC(=O)CNC(=O)Cn1cnc2c(nnn2-c2ccc(C)cc2)c1=O", "lipid storage change, negative = inhibition": "inconclusive: -3.72%"}
{"smiles": "O=C(O)CNC(=O)CC12CC3CC(CC(C3)C1)C2", "lipid storage change, negative = inhibition": "inconclusive: -6.06%"}
{"smiles": "O=c1c2ccccc2nc(-c2ccco2)n1CCCn1ccnc1", "lipid storage change, negative = inhibition": "inconclusive: 0.379%"}
{"smiles": "COc1ccc(CCCC(=O)Nc2ccc(F)cc2)cc1", "lipid storage change, negative = inhibition": "inconclusive: 24.5%"}
{"smiles": "Nc1nc(NC(=O)CCC(=O)O)nn1-c1ccccc1", "Potency": "inconclusive: 6.51 µM [cytotoxic, single point]"}
{"smiles": "C=C(C)Cn1c(=O)c(NC(=O)c2ccccc2)c2n(c1=S)CCC2", "lipid storage change, negative = inhibition": "inconclusive: -0.4%"}
{"smiles": "N#Cc1cc(-c2ccccc2)nn1-c1ccccc1", "Potency": "inconclusive: 4.61 µM [rising, single point]"}
{"smiles": "CCOC(=O)C1CCN(C(=O)CCCCn2c(=O)[nH]c3ccccc3c2=O)CC1", "lipid storage change, negative = inhibition": "inconclusive: -13.6%"}
{"smiles": "COc1cccc(CNc2nc(SC)ncc2CO)c1", "lipid storage change, negative = inhibition": "inconclusive: 3.03%"}
{"smiles": "COc1ccc(-c2nc(CN3CCC(C(=O)N4CCc5ccccc54)CC3)c(C)o2)cc1OC", "lipid storage change, negative = inhibition": "inconclusive: 83.8%"}
{"smiles": "O=C(CSc1nnc(NC(=O)C2CCC2)s1)Nc1ccccc1Br", "Potency": "inconclusive: 0.651 µM [activator, single point]"}
{"smiles": "CC(=O)c1ccccc1NS(C)(=O)=O", "lipid storage change, negative = inhibition": "inconclusive: 21.6%"}
{"smiles": "COCCCn1cc(C(=O)c2cc(OC)ccc2OCC(=O)Nc2cc(C)on2)cc(C#N)c1=O", "Potency": "inconclusive: 13 µM [activator, partial curve]"}
{"smiles": "O=C1Nc2ccccc2C1(O)Cc1ccncc1", "note": "(stereo unspecified)", "Potency": "active: 13 µM"}
{"smiles": "Cc1ccc(S(=O)(=O)NCCCN2CCCC2)cc1", "Potency": "inconclusive: 0.103 µM [activator, full curve, poor fit]"}
{"smiles": "O=C(CSc1nc2ncccc2[nH]1)Nc1ccccc1-c1ccccc1", "lipid storage change, negative = inhibition": "inconclusive: -77.4%"}
{"smiles": "O=C(NC1(C(F)(F)F)NC(=O)N(C2CCCCC2)C1=O)c1ccco1", "note": "(stereo unspecified)", "Potency": "inconclusive: 3.26 µM [falling, partial curve, poor fit]"}
{"smiles": "CCOc1ccc(N(CC(=O)NC2CCCCCC2)S(=O)(=O)c2c(C)noc2C)cc1", "Potency": "inconclusive: 6.51 µM [falling, single point]"}
{"smiles": "Nn1cnc2c([nH]c3ccccc32)c1=O", "lipid storage change, negative = inhibition": "inconclusive: -23.2%"}
{"smiles": "CCN1C(=S)SC(=O)C1=C1C=C(C)N(Cc2ccco2)C(C)=C1", "Potency": "inconclusive: 18.4 µM [falling, single point]"}
{"smiles": "COc1ccc(Cc2nc3ccc(C(=O)NCC4COCCO4)cc3o2)cc1OC", "note": "(stereo unspecified)", "Potency": "inconclusive: 5.17 µM [falling, full curve, poor fit]"}
{"smiles": "Cc1ccc(F)cc1CNC(=O)C1CCC(=O)N(CCCN2CCCC2=O)C1", "note": "(stereo unspecified)", "lipid storage change, negative = inhibition": "inconclusive: 13.7%"}
{"smiles": "O=C1C2C3C=CC(C3)C2C(=O)N1CN(Cc1ccccc1)CN1C(=O)C2C3C=CC(C3)C2C1=O", "note": "(stereo unspecified)", "Potency": "inconclusive: 23.1 µM [activator, single point]"}
{"smiles": "COc1ccccc1N1CCN(S(=O)(=O)CCNC(=O)CC2CCCCC2)CC1", "lipid storage change, negative = inhibition": "inconclusive: 50.6%"}
{"smiles": "COCCN1Cc2cccc(C(=O)Nc3c(C)cc(C)cc3C)c2C1=O", "lipid storage change, negative = inhibition": "inconclusive: 5.37%"}
{"smiles": "COc1ccc(Cl)cc1NC(=O)CCN1CCN(Cc2ccccc2)CC1", "Potency": "inconclusive: 2.59 µM [falling, single point]"}
{"smiles": "O=C(OCC(=O)N1CCCCCC1)c1ccc(F)cc1F", "lipid storage change, negative = inhibition": "inconclusive"}
{"smiles": "Cn1c(SCC(=O)N2CC(=O)Nc3ccccc32)nnc1C(F)(F)F", "lipid storage change, negative = inhibition": "inconclusive"}
{"smiles": "CCOC(=O)c1cc(S(=O)(=O)N2CCN(Cc3ccccc3)CC2)cn1C", "lipid storage change, negative = inhibition": "inconclusive: 0.941%"}
{"smiles": "COc1ccc(C(c2nnnn2Cc2ccccc2)N2CCN(C(=O)c3ccco3)CC2)cc1OC", "note": "(stereo unspecified)", "Potency": "inconclusive: 0.0046 µM [activator, full curve, poor fit]"}
{"smiles": "O=S1(=O)C[C@@H](O)[C@@H](Nc2ccc(Cl)cc2)C1", "lipid storage change, negative = inhibition": "inconclusive: -90.7%"}
{"smiles": "N#Cc1ccc(-c2csc(NC(=O)c3cc(-c4cccs4)nc4ccccc34)n2)cc1", "Potency": "inconclusive: 0.411 µM [rising, full curve]"}
{"smiles": "CCOC(=O)c1ccccc1NC(=O)Cn1cnc2c(cnn2C(C)(C)C)c1=O", "lipid storage change, negative = inhibition": "inconclusive: -24.8%"}
{"smiles": "Cc1ccc(C)c(NC(=O)N2CCCCCC2)c1", "Potency": "inconclusive: 6.51 µM [activator, single point]"}
{"smiles": "COc1cc(C2C(C#N)=C(N)OC3=C2C(=O)CCC3)cc2c1OCO2", "note": "(stereo unspecified)", "lipid storage change, negative = inhibition": "inconclusive: 21%"}
